Data as given in PubChem BioAssay AID504764 (Drosophila RNAi Screening Center, 2011).

- Screen: 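Genome-wide screen for regulators of Notch-driven gene expression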 (primary screen)
- System: Drosophila Kc167 cells
- Reagent: long dsRNA against Drosophila genes
- Timing: about 5 days (4 days dsRNA, then 24 h after transfection)
- Conditions: transfection of constitutively active membrane-tethered Notch lacking the extracellular domain, read 24 h later
- Measurement: 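Light from a Notch-responsive E(spl)m3 luciferase reporter under active Notch, with control-promoter and no-Notch reporter wells to normalise; raw counts from paired wells a and b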
- Reading the numbers: induced reporter light, run 1, well a and induced reporter light, run 1, well b: higher = more light from the Notch target reporter with active Notch; control promoter light, run 1, well a and control promoter light, run 1, well b: higher = more light from the viral control promoter (cell number, transfection, viability); uninduced reporter light, run 1, well a: higher = more light from the Notch target reporter without active Notch
- Active means: 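Wells with low control signal or poorly matching duplicates excluded; duplicates averaged; per source plate, z beyond ±2 for induced/control log2 ratio or beyond ±1.8 for induced/uninduced marks a hit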
- Calls: active = modifier hit (raised or lowered Notch signal); inactive = not a hit
The screen tested about 22,000 reagents; below is a random part of those with a known target gene and a result. Of all reagents, 403 (1.9%) are marked active. 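Unnormalised raw counts per well; ratio z-scores behind the hit calls and whether each hit raises or lowers signal are not deposited.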 Reagents against one gene are numbered here. A plus sign joins genes that one reagent is predicted to hit. The record does not give: the amount of reagent.

| target | dsRNA no. | induced reporter light, run 1, well a | induced reporter light, run 1, well b | control promoter light, run 1, well a | control promoter light, run 1, well b | uninduced reporter light, run 1, well a | activity call |
| --- | --- | --- | --- | --- | --- | --- | --- |
| Rat1 (Rat1 5'-3' exoribonuclease) | 1 | 14290 | 15560 | 18150 | 23310 | 1888 | active |
| Ugt35E1 (UDP-glycosyltransferase family 35 member E1) | 1 | 70790 | 70805 | 75380 | 72150 | 4285 | inactive |
| Abcd3 (ATP binding cassette subfamily D member 3) | 1 | 1.49e5 | 1.15e5 | 1.43e5 | 2.04e5 | 14160 | inactive |
| CG5535 | 1 | 1.29e5 | 1.22e5 | 79265 | 68165 | 9505 | inactive |
| CG14564 | 1 | 1.40e5 | 1.34e5 | 92705 | 88925 | 10820 | inactive |
| CG18641 | 1 | 1.34e5 | 1.43e5 | 1.28e5 | 95040 | 8828 | inactive |
| CG12715 | 1 | 1.09e5 | 99640 | 2.17e5 | 2.51e5 | 10635 | inactive |
| CG3500 | 1 | 1.36e5 | 1.42e5 | 1.56e5 | 1.46e5 | 10885 | inactive |
| fd3F (retired record) + Crg-1 | 1 | 49030 | 57390 | 72530 | 79125 | 5655 | inactive |
| Trs33 (TRAPP subunit 33) | 1 | 1.73e5 | 1.75e5 | 2.66e5 | 2.53e5 | 16275 | active |
| Vm34Ca (Vitelline membrane 34Ca) | 1 | 1.54e5 | 1.49e5 | 1.45e5 | 1.68e5 | 12442 | inactive |
| CG12768 | 1 | 69935 | 62175 | 65355 | 48930 | 5618 | inactive |
| slp2 (sloppy paired 2) | 1 | 47245 | 46280 | 59130 | 48095 | 3520 | inactive |
| CG11425 | 1 | 1.27e5 | 1.09e5 | 1.33e5 | 1.17e5 | 10310 | inactive |
| CNT1 + CG13742 | 1 | 2.30e5 | 2.36e5 | 2.76e5 | 2.67e5 | 18660 | inactive |
| Zip89B (Zinc/iron regulated transporter-related protein 89B) | 1 | 1.42e5 | 1.71e5 | 1.84e5 | 1.83e5 | 17855 | inactive |
| Snap29 (Synaptosomal-associated protein 29kDa) | 1 | 1.48e5 | 1.28e5 | 1.59e5 | 1.62e5 | 9925 | inactive |
| porin | 1 | 2.36e5 | 2.46e5 | 1.92e5 | 1.82e5 | 19515 | inactive |
| boil (boilerman) | 1 | 1.50e5 | 1.55e5 | 2.43e5 | 2.59e5 | 10215 | inactive |
| Cdc14 (Cell division cycle 14) | 1 | 1.36e5 | 1.55e5 | 83680 | 1.20e5 | 19640 | inactive |
| Gbp1 (Growth-blocking peptide 1) | 1 | 89195 | 1.02e5 | 1.12e5 | 85515 | 7085 | inactive |
| CG18538 | 1 | 39710 | 36875 | 51810 | 42900 | 4465 | inactive |
| CG14673 (retired record) | 1 | 84365 | 76935 | 68785 | 64865 | 4080 | inactive |
| CG15725 | 1 | 1.22e5 | 1.13e5 | 2.25e5 | 2.03e5 | 7795 | inactive |
| Cpsf100 (Cleavage and polyadenylation specificity factor 100) | 1 | 2.09e5 | 1.73e5 | 2.19e5 | 2.29e5 | 12030 | inactive |
| CG34353 | 1 | 1.94e5 | 1.72e5 | 2.60e5 | 2.38e5 | 17100 | inactive |
| CG34353 | 2 | 1.19e5 | 2.19e5 | 1.30e5 | 1.16e5 | 8805 | inactive |
| CG34353 | 3 | 1.23e5 | 1.31e5 | 1.72e5 | 1.61e5 | 12955 | inactive |
| CG34353 | 4 | 1.11e5 | 94065 | 1.48e5 | 1.38e5 | 10705 | inactive |
| CG5790 | 1 | 1.87e5 | 1.73e5 | 1.61e5 | 1.68e5 | 14495 | inactive |
| CG32087 | 1 | 1.45e5 | 1.44e5 | 2.37e5 | 2.00e5 | 12765 | inactive |
| CG16813 | 1 | 1.39e5 | 1.53e5 | 1.18e5 | 1.21e5 | 12270 | inactive |
| CG5339 | 1 | 2.26e5 | 2.41e5 | 1.72e5 | 2.15e5 | 16680 | inactive |
| robo1 (roundabout 1) | 1 | 1.34e5 | 1.31e5 | 1.40e5 | 1.38e5 | 10705 | inactive |
| Srp19 (Signal recognition particle 19) | 1 | 1.72e5 | 1.34e5 | 1.81e5 | 1.39e5 | 6915 | inactive |
| Obp58d (Odorant-binding protein 58d) | 1 | 1.94e5 | 1.66e5 | 1.49e5 | 1.65e5 | 12955 | inactive |
| Cyp4e2 (Cytochrome P450 4e2) | 1 | 1.60e5 | 1.54e5 | 1.71e5 | 1.83e5 | 13420 | inactive |
| Ir62a (Ionotropic receptor 62a) | 1 | 1.67e5 | 1.16e5 | 1.63e5 | 1.43e5 | 6425 | inactive |
| CG3735 | 1 | 1.82e5 | 2.00e5 | 1.58e5 | 1.83e5 | 13790 | inactive |
| CG14190 | 1 | 91805 | 1.19e5 | 1.12e5 | 1.02e5 | 12025 | inactive |
| Peritrophin-15b | 1 | 1.20e5 | 1.49e5 | 81715 | 1.06e5 | 18340 | inactive |
| Nuak (Nuak family kinase) | 1 | 87470 | 70975 | 62630 | 50015 | 5390 | inactive |
| Nuak (Nuak family kinase) | 2 | 81825 | 1.15e5 | 48895 | 47940 | 7830 | inactive |
| Nuak (Nuak family kinase) | 3 | 73810 | 96950 | 81145 | 77825 | 5355 | inactive |
| Pgm1 (Phosphoglucose mutase 1) | 1 | 1.25e5 | 98400 | 75475 | 91250 | 9680 | inactive |
| CG5756 | 1 | 85990 | 93820 | 1.16e5 | 82090 | 6350 | inactive |
| Clic (Chloride intracellular channel) | 1 | 2.29e5 | 2.65e5 | 2.67e5 | 2.87e5 | 15935 | inactive |
| ubl (ubiquitin like) | 1 | 2.11e5 | 2.40e5 | 2.32e5 | 2.00e5 | 14215 | active |
| CG9389 | 1 | 1.45e5 | 1.12e5 | 1.03e5 | 1.49e5 | 10880 | inactive |
| PGRP-LE (Peptidoglycan recognition protein LE) | 1 | 1.84e5 | 1.85e5 | 2.37e5 | 2.08e5 | 13032 | inactive |
